The record followed here is PMC9089883.

Amino acid sequences for entries named in this document (tags omitted).
UniProt P51775: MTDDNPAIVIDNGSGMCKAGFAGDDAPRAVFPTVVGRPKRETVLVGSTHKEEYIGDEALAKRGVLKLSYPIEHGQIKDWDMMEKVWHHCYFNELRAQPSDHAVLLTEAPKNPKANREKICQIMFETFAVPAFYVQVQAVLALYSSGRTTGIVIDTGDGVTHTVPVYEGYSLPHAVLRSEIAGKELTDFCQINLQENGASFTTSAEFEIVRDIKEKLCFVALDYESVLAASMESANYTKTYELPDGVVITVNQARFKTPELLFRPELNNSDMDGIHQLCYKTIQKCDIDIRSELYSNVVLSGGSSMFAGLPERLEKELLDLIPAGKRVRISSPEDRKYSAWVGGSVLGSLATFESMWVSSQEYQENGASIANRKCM

These are yes or no findings as the source states them, for the method shown. In cells and extracts the contact can be indirect. Binding calls can cover weak binding; strength is not graded here.

In the test the target is Flangin-3HA (Flangin endogenously tagged with a triple hemagglutinin epitope) (Giardia lamblia (strain WB Clone 6, ATCC 50803)) (UniProt A8BCS1). Put plainly: co-IP.

Regarding “Giardia lamblia actin (GlActin) (from UniProt P51775 1-375)”, the binding result is on record as “binds”.
